Experimental data from PMC7819943, “Rice protein-binding microarrays: a tool to detect cis-acting elements near promoter regions in rice”.
Some of the results follow.

By UniProt entry, the sequences of proteins in these tests, tags left out.
UniProt Q0JBA9, entry or part of it: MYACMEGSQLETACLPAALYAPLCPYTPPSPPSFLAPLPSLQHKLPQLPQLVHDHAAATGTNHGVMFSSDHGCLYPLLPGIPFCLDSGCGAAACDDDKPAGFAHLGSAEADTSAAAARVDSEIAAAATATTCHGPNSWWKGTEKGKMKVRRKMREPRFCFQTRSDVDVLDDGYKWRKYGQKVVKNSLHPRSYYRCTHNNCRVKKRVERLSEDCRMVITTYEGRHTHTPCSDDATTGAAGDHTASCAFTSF

Target: OsWRKY34 (Oryza sativa, UniProt Q0JBA9 1-250)
Experiment: protein-binding microarray (RPBM); PBS, 2% BSA, 51.3 ng/ul salmon testes DNA, 50 uM zinc acetate, 200 nM TF, 25 C, 1 h; high values mean tight binding
Conditions: protein: recombinant; tags: N-terminal polyhistidine and DsRed monomer fusion (pET32a); label: CyDye5-dUTP incorporated in the synthesized complementary strand; 3' TTTTT single-stranded linker to array surface; dsDNA, one strand shown
Summary of the method: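 Using Ni–NTA, transcription factors fused N-terminally to polyhistidine and DsRed were purified after expression in E. coli BL21-CodonPlus. These were incubated at 200 nM with a blocked, double-stranded custom Agilent array for 1 h at 25 °C in a buffer containing 50 µM zinc acetate, and the array was washed. The binding signal is per-feature fluorescence intensity (arbitrary units) on an Axon 4000B scanner.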

Sequence	binding signal
CAGCTCATCATCCCATCACACCCTTCTTCGAACGGCACAACGGAGTCACCTAGTGCAG	9910 fluorescence intensity (a.u.)
CTATAGGTGGATTTTTAGGGACTCACCCGTAAAAACAGGTCGGAGTCACCTAGTGCAG	26800 fluorescence intensity (a.u.)
GGATTTGTGATGTATTTGATTTGTGTGTATATGTAACTTTCGGAGTCACCTAGTGCAG	8760 fluorescence intensity (a.u.)
GATATTGGTGTTGCGGTCATTTTGGACAATGCCTTTGTCGCGGAGTCACCTAGTGCAG	12800 fluorescence intensity (a.u.)
GGGGTGGCGGCGGCGGCTGCGCGCGGGCGGTGGCGCGGGGCGGAGTCACCTAGTGCAG	12000 fluorescence intensity (a.u.)
TAATGACTTATCCTGCGGTGAAAAATCTTCATCTTCGTATCGGAGTCACCTAGTGCAG	8160 fluorescence intensity (a.u.)
TTTTTTTCTCCTCATTATTCTTCTTTTCTTTCTCTATATTCGGAGTCACCTAGTGCAG	9180 fluorescence intensity (a.u.)
TACTCTTAATCCCTCTATCTGTTAGTAGATACTCCATCCACGGAGTCACCTAGTGCAG	8890 fluorescence intensity (a.u.)
CAAACGTTGCCGATCTCAATCTCGAGGGGTTTTCTTTCCTCGGAGTCACCTAGTGCAG	8930 fluorescence intensity (a.u.)
GCAAGAGTACTCTACTTCTGCAAGCTTATTCTTCGACTGACGGAGTCACCTAGTGCAG	9570 fluorescence intensity (a.u.)
GGTTTTGAAAGACAGGGGTTCAACATTCTGACATTACAGTCGGAGTCACCTAGTGCAG	9170 fluorescence intensity (a.u.)
CCTCGTCGCGCTTGAGCTCCGCCCGCCACGGCCACGCGCCCGGAGTCACCTAGTGCAG	9230 fluorescence intensity (a.u.)
CGTGCTCCTCCTACCCATCAGCCCATTGCCCCGCGTCGCTCGGAGTCACCTAGTGCAG	8120 fluorescence intensity (a.u.)
AATGGTTGTGCTGGTATTACATCATTTTGGTGCTGAAATGCGGAGTCACCTAGTGCAG	8660 fluorescence intensity (a.u.)
CCCAGCCGCACCAGATCCCATCCCTTCTCTTCTTCTTCTCCGGAGTCACCTAGTGCAG	8170 fluorescence intensity (a.u.)
TACTCACTTTGTTTCATAATATATTGGATATGTTTTTCTTCGGAGTCACCTAGTGCAG	8850 fluorescence intensity (a.u.)
CTGCTCGGAGCACACACAACCACCACTCACCACCAACATGCGGAGTCACCTAGTGCAG	9280 fluorescence intensity (a.u.)
GTCGCGGCTGAACAGAACAGGGGAGGGGCGGCGATCTCCACGGAGTCACCTAGTGCAG	9420 fluorescence intensity (a.u.)
TTGAAGAGATAATTTCCCTTGTTTTGTATTTTCTTTTTCCCGGAGTCACCTAGTGCAG	9920 fluorescence intensity (a.u.)
GTGTCCAAGTCCAACTCCGCCTCTTCCACGCTTCGGCTTCCGGAGTCACCTAGTGCAG	9220 fluorescence intensity (a.u.)
GAGACACCGACGCGTCACACCACCACGTCCGTTTCCGTACCGGAGTCACCTAGTGCAG	8300 fluorescence intensity (a.u.)

Sequence	binding signal
GGTTGGCTTCTTCTCGGTTTGTTCGTTCCTTGTGGTCGAGCGGAGTCACCTAGTGCAG	8240 fluorescence intensity (a.u.)
ATCTAACCATGCGTCATTCACAGTTCTTCGTTCTTGTCTTCGGAGTCACCTAGTGCAG	8650 fluorescence intensity (a.u.)
CAAGCATCTCCTCTTCTCCTCTTCTTCCATCTGCAAGCTCCGGAGTCACCTAGTGCAG	8350 fluorescence intensity (a.u.)
ATATCCAGTTCCTTTTCTTTTGGGGTGGTTCAAATGTCGACGGAGTCACCTAGTGCAG	11900 fluorescence intensity (a.u.)
TTCATACTCTTACTATGTCCTGTTCTTGTCTTCAACAAAACGGAGTCACCTAGTGCAG	8090 fluorescence intensity (a.u.)
AATTTTATGGAATTCACTCATTTTTTCTCATTGAGAATTTCGGAGTCACCTAGTGCAG	8540 fluorescence intensity (a.u.)
CTGGTAAACATTAGGCTACATATCCTTTCGCTTTTCTTCTCGGAGTCACCTAGTGCAG	11400 fluorescence intensity (a.u.)
TGTTGGTTTGGTGTGAAAGAGAAGAGAGAGGCTTTTGCTCCGGAGTCACCTAGTGCAG	11900 fluorescence intensity (a.u.)
CGTCAACCCTTTGCCTTTGTTAGCGAGCTAGCGTGTACACCGGAGTCACCTAGTGCAG	9190 fluorescence intensity (a.u.)
GAAATCTCATCCGTTTTTTTTTGATTTGAGGTCTCCTACCCGGAGTCACCTAGTGCAG	8400 fluorescence intensity (a.u.)
GCCCACACGAAGCTTACGTACACTTCTTGGTCTCGAGCCGCGGAGTCACCTAGTGCAG	11500 fluorescence intensity (a.u.)
TCTCTCTGTAATTTTGGTTTGATGCCAATTATCGGCTTACCGGAGTCACCTAGTGCAG	8040 fluorescence intensity (a.u.)
GGTCTTTGAAGTCCTTGTGTTCTCCATGCCCTACAAATGACGGAGTCACCTAGTGCAG	9210 fluorescence intensity (a.u.)
TGGCTGGTGTTGAATTCATTGTGCATCCAACGGTCATTATCGGAGTCACCTAGTGCAG	11400 fluorescence intensity (a.u.)
GTTTCATTGAGATGGTGTCGACGTGGCGGCGTTGACTTAGCGGAGTCACCTAGTGCAG	10700 fluorescence intensity (a.u.)
GGCCTGTAGACACCTTTGTATACCTTTTTCCACATCTTAACGGAGTCACCTAGTGCAG	9440 fluorescence intensity (a.u.)
AACTCTAATTTACTGTTGGTTGGTGCAATATCAGATGGATCGGAGTCACCTAGTGCAG	8900 fluorescence intensity (a.u.)
GACCATTATACGCGGTTGCCTACATAGCCTCAAATTATGTCGGAGTCACCTAGTGCAG	8260 fluorescence intensity (a.u.)
CTACAAACACAAATTGCATATACACTCTTAGGTTCTGTATCGGAGTCACCTAGTGCAG	11000 fluorescence intensity (a.u.)
CACTAATGGCTGACAATTACTACTTCTGACCACTCATACTCGGAGTCACCTAGTGCAG	9490 fluorescence intensity (a.u.)
TCAAGTTTTATGTAATGCAGATTTTACCTTTGTATTTCACCGGAGTCACCTAGTGCAG	8840 fluorescence intensity (a.u.)

2 entries drawn at random from the list so far, as already listed:
Sequence	binding signal
GATATTGGTGTTGCGGTCATTTTGGACAATGCCTTTGTCGCGGAGTCACCTAGTGCAG	12800 fluorescence intensity (a.u.)
GGCCTGTAGACACCTTTGTATACCTTTTTCCACATCTTAACGGAGTCACCTAGTGCAG	9440 fluorescence intensity (a.u.)
